This is an account of results in PMC12374634.

These are yes or no findings as the source states them, for the method shown. In cells and extracts the contact can be indirect. Some entries that bind do so weakly or less than the wild type. For some of these results: Tags and fused reporters may be left off the sequences shown.

Test [1] deals with T1, activin receptor-like kinase 1 (ALK1), endogenous (mouse (endogenous in neonatal mouse cardiac fibroblasts)) (UniProt Q61288).
T1 sequence: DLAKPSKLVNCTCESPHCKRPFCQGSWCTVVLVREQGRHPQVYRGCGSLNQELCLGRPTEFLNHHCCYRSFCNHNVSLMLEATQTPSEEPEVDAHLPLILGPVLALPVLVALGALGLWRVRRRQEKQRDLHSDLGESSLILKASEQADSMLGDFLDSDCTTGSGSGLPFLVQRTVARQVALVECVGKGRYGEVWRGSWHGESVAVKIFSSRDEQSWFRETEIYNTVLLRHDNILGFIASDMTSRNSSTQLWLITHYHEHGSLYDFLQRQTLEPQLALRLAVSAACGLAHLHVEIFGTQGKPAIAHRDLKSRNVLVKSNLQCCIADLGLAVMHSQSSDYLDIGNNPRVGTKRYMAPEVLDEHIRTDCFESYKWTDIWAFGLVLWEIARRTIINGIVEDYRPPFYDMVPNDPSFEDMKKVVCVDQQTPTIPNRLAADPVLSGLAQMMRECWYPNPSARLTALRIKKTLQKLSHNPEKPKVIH
The test can be described thus: co-IP; endogenous proteins in lysate of senescent (D-gal-treated) mouse cardiac fibroblasts; IP with antibody to the receptor (or IgG), protein A/G magnetic beads, 4 °C overnight, washes with PBS with 0.5% Tween-20; immunoblot for FBLN7.

The target in test [2] is T2, TGF-β type III receptor (TGFBR3), endogenous (mouse (endogenous in neonatal mouse cardiac fibroblasts)) (UniProt O88393).
T2 sequence: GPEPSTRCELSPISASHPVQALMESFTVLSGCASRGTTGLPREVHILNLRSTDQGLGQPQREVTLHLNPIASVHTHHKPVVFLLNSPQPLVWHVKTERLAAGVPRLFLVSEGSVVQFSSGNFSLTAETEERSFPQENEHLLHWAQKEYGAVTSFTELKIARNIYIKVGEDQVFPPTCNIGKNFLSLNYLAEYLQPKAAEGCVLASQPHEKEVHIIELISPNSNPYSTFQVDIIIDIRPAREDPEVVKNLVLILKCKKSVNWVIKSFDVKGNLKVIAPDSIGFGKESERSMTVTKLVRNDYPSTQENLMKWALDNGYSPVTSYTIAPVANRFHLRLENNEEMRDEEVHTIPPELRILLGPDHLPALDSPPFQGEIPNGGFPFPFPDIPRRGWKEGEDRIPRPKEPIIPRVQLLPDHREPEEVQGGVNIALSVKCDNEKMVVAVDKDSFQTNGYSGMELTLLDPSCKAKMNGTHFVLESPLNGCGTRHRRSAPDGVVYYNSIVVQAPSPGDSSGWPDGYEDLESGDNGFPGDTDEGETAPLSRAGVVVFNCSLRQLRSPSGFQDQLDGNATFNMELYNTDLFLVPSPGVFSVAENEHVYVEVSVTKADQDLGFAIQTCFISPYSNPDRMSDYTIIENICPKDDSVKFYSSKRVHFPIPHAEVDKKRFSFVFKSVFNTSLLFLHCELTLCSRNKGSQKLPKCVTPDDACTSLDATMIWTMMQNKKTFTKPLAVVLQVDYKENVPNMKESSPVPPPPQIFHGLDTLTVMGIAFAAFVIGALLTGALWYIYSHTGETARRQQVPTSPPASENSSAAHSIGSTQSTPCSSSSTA
The test is described as above.

The next test addresses T3, Flag-TGFBR3 (mouse) (UniProt O88393).
T3 sequence: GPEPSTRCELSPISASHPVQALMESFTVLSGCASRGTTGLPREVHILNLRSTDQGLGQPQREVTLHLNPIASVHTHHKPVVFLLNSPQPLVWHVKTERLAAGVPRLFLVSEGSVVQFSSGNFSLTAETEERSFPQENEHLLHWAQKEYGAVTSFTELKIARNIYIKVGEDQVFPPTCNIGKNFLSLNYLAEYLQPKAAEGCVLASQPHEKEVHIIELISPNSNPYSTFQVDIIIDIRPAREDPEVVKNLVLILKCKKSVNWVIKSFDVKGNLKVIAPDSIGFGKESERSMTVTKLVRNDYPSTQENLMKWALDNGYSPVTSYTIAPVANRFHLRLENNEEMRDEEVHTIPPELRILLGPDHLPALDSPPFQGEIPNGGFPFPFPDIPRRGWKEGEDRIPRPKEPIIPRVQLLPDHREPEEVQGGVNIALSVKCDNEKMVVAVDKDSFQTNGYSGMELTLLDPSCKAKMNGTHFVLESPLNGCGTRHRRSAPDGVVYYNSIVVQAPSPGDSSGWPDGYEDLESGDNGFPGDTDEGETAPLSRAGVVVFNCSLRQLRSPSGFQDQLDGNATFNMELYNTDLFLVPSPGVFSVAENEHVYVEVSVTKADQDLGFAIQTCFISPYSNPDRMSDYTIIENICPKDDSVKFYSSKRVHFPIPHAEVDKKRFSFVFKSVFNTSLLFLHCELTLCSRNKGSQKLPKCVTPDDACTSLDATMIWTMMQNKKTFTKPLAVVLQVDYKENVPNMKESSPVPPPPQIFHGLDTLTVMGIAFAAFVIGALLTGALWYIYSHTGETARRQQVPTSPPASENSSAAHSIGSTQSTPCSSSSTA
Description: co-IP; 293T cells co-transfected with Flag-TGFBR3 and GFP-FBLN7, lysed 24 h after transfection in nondenaturing lysis buffer; reciprocal IP with GFP-tag or Flag-tag antibody, protein A/G magnetic beads, 4 °C overnight; immunoblot for the other tag. For orientation: In western blotting, separated proteins are transferred to a membrane and probed.

The next test addresses T4, GFP-FBLN7 (mouse) (UniProt Q501P1).
T4 sequence: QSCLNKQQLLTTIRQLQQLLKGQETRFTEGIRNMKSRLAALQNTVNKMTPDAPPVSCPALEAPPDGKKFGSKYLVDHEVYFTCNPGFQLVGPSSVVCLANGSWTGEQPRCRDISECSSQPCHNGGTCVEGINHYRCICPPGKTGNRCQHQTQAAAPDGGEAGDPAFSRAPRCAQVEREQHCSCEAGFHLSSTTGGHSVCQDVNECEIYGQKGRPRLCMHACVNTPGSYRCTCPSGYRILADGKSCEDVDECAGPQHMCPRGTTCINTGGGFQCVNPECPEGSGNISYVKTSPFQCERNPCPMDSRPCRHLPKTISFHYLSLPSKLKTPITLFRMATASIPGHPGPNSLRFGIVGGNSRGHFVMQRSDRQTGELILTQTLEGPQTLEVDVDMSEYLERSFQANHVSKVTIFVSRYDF
The description is as above.

B1: Fibulin 7 (FBLN7), endogenous (protein, UniProt Q501P1 25-440)
chain: QSCLNKQQLLTTIRQLQQLLKGQETRFTEGIRNMKSRLAALQNTVNKMTPDAPPVSCPALEAPPDGKKFGSKYLVDHEVYFTCNPGFQLVGPSSVVCLANGSWTGEQPRCRDISECSSQPCHNGGTCVEGINHYRCICPPGKTGNRCQHQTQAAAPDGGEAGDPAFSRAPRCAQVEREQHCSCEAGFHLSSTTGGHSVCQDVNECEIYGQKGRPRLCMHACVNTPGSYRCTCPSGYRILADGKSCEDVDECAGPQHMCPRGTTCINTGGGFQCVNPECPEGSGNISYVKTSPFQCERNPCPMDSRPCRHLPKTISFHYLSLPSKLKTPITLFRMATASIPGHPGPNSLRFGIVGGNSRGHFVMQRSDRQTGELILTQTLEGPQTLEVDVDMSEYLERSFQANHVSKVTIFVSRYDF
For B1, the figures for the binding result in test [1] and in test [2] were “no binding” and “binds”, respectively.

B2: GFP-FBLN7 (protein, UniProt Q501P1 25-440)
chain: QSCLNKQQLLTTIRQLQQLLKGQETRFTEGIRNMKSRLAALQNTVNKMTPDAPPVSCPALEAPPDGKKFGSKYLVDHEVYFTCNPGFQLVGPSSVVCLANGSWTGEQPRCRDISECSSQPCHNGGTCVEGINHYRCICPPGKTGNRCQHQTQAAAPDGGEAGDPAFSRAPRCAQVEREQHCSCEAGFHLSSTTGGHSVCQDVNECEIYGQKGRPRLCMHACVNTPGSYRCTCPSGYRILADGKSCEDVDECAGPQHMCPRGTTCINTGGGFQCVNPECPEGSGNISYVKTSPFQCERNPCPMDSRPCRHLPKTISFHYLSLPSKLKTPITLFRMATASIPGHPGPNSLRFGIVGGNSRGHFVMQRSDRQTGELILTQTLEGPQTLEVDVDMSEYLERSFQANHVSKVTIFVSRYDF
Consider B2, for which, in the test with Flag-TGFBR3 (mouse), the binding entry is listed as “binds”.

B3: Flag-TGFBR3 (receptor, UniProt O88393 23-850)
chain: GPEPSTRCELSPISASHPVQALMESFTVLSGCASRGTTGLPREVHILNLRSTDQGLGQPQREVTLHLNPIASVHTHHKPVVFLLNSPQPLVWHVKTERLAAGVPRLFLVSEGSVVQFSSGNFSLTAETEERSFPQENEHLLHWAQKEYGAVTSFTELKIARNIYIKVGEDQVFPPTCNIGKNFLSLNYLAEYLQPKAAEGCVLASQPHEKEVHIIELISPNSNPYSTFQVDIIIDIRPAREDPEVVKNLVLILKCKKSVNWVIKSFDVKGNLKVIAPDSIGFGKESERSMTVTKLVRNDYPSTQENLMKWALDNGYSPVTSYTIAPVANRFHLRLENNEEMRDEEVHTIPPELRILLGPDHLPALDSPPFQGEIPNGGFPFPFPDIPRRGWKEGEDRIPRPKEPIIPRVQLLPDHREPEEVQGGVNIALSVKCDNEKMVVAVDKDSFQTNGYSGMELTLLDPSCKAKMNGTHFVLESPLNGCGTRHRRSAPDGVVYYNSIVVQAPSPGDSSGWPDGYEDLESGDNGFPGDTDEGETAPLSRAGVVVFNCSLRQLRSPSGFQDQLDGNATFNMELYNTDLFLVPSPGVFSVAENEHVYVEVSVTKADQDLGFAIQTCFISPYSNPDRMSDYTIIENICPKDDSVKFYSSKRVHFPIPHAEVDKKRFSFVFKSVFNTSLLFLHCELTLCSRNKGSQKLPKCVTPDDACTSLDATMIWTMMQNKKTFTKPLAVVLQVDYKENVPNMKESSPVPPPPQIFHGLDTLTVMGIAFAAFVIGALLTGALWYIYSHTGETARRQQVPTSPPASENSSAAHSIGSTQSTPCSSSSTA
As to B3, the binding entry with GFP-FBLN7 (mouse) is listed as “binds”.
